Assay results taken from PMC6523062.

The chains behind the UniProt entries cited, without tags or fusion partners. Where a name states a change or a piece, a line headed by the entry shows the natural chain unless it says otherwise.
UniProt Q38997: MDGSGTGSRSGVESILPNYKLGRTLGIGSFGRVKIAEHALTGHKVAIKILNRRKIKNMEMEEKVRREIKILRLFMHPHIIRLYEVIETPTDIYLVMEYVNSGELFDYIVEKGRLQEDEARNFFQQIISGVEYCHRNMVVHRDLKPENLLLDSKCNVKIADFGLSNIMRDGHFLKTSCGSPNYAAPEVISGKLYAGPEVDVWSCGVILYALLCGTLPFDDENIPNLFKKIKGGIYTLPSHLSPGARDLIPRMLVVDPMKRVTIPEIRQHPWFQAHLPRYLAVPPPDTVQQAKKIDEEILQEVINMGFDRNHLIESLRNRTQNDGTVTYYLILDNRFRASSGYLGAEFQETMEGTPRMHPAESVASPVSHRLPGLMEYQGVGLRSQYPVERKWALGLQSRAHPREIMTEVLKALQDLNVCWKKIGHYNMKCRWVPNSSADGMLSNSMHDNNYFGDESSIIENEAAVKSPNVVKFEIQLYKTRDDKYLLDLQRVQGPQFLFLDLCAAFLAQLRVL

Experiments:
[1] = target: cYFP-KIN10 (KIN10 fused to the C-terminal half of YFP) (Arabidopsis) (UniProt Q38997); test: split reporter; BiFC (split YFP), transient co-expression in Nicotiana benthamiana leaf epidermal cells under a DEX-inducible promoter; leaves treated with DEX and 20 μg/ml antimycin A
[2] = target: cYFP-KIN10 (KIN10 fused to the C-terminal half of YFP) (Arabidopsis) (UniProt Q38997); test: split reporter; BiFC (split YFP), transient co-expression in Nicotiana benthamiana leaf epidermal cells under a DEX-inducible promoter; normal conditions: DEX and DMSO, no antimycin A

B1: nYFP-SOG1 (SOG1 fused to the N-terminal half of yellow fluorescent protein) (protein, UniProt Q6NQK2 1-449)
chain: MAGRSWLIDSNRIATKIMSASASSDPRQVVWKSNPSRHCPKCQHVIDNSDVVDDWPGLPRGVKFDPSDPEIIWHLLAKSGLSGLSSHPFIDEFIPTVNQDDGICYTHPKNLPGVKSDGTVSHFFHKAIKAYSTGTRKRRKIHDDDFGDVRWHKTGRTKPVVLDGVQRGCKKIMVLYGGKAVKTNWVMHQYHLGIEEDEKEGDYVVSKIFYQQPQQLVVKRGDKAEQEVSEDIFAAVTPTADPVTPKLATPEPRNAVRICSDSHIASDYVTPSDYVSAHEVSLAETSEVMCMEDEVQSIQPNHERPSSGPELEHGLENGAKEMLDDKEEQEKDRDNENQGEEDPTWFDSGSQFILNSQQLVEALSLCDDLLGSQDREENTNSGSLKDKQPCIADYAHLGPEDFKRDLEECQKIVLDPSNIELDTPPEFRLSQLEFGSQDSFLAWGTGKTD
B1 was tested, and the binding [1] was “binds” and the binding [2] was “no binding (only without antimycin A (DEX and DMSO))”.

No constants are given. Whether binding was seen depends on the method and setting. Binding seen in cells or lysates may run through a third protein. For some assays here: Binding calls can cover weak binding; strength is not graded here. Tags and fused reporters may be left off the sequences shown.
